Literature values in patent publication US10709159B2, “Increasing the bioavailability of flavan-3-ols with carbohydrates with a low glycemic index” (NESTEC S.A., priority 2012, dated 2020).

Settings: relative to glucose; cited from earlier work
For O=C[C@H](O)[C@@H](O)[C@@H](O)[C@H](O)CO [galactose], the “glycemic index (GI)” value is given as 23. For OC[C@@H](O)[C@@H](O)[C@H](O)[C@@H](O)CO [sorbitol, D-sorbitol], the “glycemic index (GI)” value is given as 4. In the case of OC[C@@H](O)[C@H](O)[C@@H](O)CO [xylitol], the “glycemic index (GI)” value is listed as 7.
